Reference: the supplement of paper PMC10060354, “Discovery of a small molecule ligand of FRS2 that inhibits invasion and tumor growth” (Cellular Oncology, 2022)
Many values rest on one well or one pass, so single values are uncertain.

Amino acid sequences for entries named in this document (tags omitted). A change or cut given only in a name is not applied to a line headed by its entry.
UniProt P62312: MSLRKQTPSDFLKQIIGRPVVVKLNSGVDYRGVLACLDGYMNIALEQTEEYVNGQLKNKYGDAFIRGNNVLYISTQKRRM
UniProt O95352: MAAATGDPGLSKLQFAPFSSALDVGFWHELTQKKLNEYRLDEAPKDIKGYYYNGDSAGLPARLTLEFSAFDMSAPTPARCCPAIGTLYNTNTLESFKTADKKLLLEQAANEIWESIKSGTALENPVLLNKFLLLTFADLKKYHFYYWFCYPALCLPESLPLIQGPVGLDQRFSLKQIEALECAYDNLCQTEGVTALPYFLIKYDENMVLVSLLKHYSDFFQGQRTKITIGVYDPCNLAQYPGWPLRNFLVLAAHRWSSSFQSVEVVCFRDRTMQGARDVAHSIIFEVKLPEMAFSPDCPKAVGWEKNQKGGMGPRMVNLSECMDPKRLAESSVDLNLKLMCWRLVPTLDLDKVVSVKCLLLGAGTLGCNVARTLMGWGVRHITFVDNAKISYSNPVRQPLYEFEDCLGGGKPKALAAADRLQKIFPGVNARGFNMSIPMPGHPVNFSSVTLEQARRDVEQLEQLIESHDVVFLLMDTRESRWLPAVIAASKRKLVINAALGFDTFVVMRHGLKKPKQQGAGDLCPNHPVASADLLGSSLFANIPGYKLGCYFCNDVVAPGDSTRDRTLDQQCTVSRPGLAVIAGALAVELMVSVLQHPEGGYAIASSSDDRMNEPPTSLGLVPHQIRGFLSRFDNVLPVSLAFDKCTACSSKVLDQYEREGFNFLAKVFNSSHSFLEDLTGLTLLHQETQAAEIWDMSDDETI
UniProt Q9HDC9: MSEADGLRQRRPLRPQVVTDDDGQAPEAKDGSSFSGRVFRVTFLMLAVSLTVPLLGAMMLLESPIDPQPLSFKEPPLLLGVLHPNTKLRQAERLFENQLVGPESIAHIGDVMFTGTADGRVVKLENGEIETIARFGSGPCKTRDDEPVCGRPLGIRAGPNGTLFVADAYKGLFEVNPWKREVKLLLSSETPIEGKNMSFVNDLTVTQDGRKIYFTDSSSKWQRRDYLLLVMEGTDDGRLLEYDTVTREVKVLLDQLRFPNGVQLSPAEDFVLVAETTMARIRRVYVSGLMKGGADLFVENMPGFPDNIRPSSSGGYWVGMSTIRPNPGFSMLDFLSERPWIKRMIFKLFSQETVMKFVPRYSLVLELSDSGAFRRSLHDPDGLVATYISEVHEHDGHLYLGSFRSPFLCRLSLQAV
UniProt Q96GC9: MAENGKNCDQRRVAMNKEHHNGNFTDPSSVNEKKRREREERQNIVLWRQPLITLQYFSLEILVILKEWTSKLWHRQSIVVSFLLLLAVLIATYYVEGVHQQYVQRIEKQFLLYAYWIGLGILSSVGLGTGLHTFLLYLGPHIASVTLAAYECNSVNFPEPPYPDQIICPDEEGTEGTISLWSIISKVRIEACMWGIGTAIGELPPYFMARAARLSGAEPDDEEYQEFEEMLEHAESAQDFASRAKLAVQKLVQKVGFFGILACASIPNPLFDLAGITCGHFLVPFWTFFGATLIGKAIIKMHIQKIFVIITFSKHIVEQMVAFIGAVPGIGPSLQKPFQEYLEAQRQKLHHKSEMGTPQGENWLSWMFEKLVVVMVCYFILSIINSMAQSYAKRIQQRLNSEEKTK
UniProt Q96GP6: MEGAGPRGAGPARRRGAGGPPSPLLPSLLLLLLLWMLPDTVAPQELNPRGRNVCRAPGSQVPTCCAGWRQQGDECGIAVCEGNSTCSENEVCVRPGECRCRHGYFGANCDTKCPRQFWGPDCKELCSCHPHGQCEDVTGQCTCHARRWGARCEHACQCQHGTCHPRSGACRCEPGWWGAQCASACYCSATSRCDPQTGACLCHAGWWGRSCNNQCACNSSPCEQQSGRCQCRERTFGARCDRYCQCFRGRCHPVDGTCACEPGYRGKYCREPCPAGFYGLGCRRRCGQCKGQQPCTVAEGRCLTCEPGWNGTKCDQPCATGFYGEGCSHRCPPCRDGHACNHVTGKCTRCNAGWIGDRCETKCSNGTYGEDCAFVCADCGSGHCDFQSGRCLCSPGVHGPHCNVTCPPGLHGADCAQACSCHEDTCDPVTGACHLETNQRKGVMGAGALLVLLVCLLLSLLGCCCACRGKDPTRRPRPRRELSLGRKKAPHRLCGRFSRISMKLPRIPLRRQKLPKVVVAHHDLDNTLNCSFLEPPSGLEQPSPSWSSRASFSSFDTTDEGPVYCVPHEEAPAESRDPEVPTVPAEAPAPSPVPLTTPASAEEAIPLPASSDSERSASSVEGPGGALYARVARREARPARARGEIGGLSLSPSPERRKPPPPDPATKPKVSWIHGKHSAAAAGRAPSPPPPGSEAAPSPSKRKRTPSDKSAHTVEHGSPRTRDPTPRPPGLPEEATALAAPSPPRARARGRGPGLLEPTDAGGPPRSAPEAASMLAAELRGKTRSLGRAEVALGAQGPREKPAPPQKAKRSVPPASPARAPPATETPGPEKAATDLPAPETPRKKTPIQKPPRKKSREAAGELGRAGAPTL
UniProt O15405: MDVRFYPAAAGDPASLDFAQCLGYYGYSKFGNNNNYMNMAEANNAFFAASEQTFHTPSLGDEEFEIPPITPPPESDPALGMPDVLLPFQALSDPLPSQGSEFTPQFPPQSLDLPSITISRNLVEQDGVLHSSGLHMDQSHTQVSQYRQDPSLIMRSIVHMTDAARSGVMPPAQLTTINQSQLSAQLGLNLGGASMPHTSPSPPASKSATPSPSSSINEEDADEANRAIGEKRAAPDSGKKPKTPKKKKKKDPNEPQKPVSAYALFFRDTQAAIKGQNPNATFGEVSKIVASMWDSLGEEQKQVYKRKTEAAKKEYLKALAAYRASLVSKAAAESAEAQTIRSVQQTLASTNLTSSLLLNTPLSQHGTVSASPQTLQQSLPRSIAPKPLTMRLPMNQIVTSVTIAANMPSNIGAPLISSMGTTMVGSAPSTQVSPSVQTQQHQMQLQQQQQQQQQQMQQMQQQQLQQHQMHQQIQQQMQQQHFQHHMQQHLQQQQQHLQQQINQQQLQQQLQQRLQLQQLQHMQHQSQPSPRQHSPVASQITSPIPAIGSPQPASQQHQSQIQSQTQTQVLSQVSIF
UniProt Q5JPI9: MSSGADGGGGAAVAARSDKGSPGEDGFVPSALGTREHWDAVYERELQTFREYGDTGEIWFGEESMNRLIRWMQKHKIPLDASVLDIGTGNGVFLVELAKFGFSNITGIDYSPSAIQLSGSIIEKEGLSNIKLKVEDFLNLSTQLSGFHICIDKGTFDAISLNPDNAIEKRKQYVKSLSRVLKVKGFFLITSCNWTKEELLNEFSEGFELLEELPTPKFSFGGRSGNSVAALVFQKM
UniProt O15439: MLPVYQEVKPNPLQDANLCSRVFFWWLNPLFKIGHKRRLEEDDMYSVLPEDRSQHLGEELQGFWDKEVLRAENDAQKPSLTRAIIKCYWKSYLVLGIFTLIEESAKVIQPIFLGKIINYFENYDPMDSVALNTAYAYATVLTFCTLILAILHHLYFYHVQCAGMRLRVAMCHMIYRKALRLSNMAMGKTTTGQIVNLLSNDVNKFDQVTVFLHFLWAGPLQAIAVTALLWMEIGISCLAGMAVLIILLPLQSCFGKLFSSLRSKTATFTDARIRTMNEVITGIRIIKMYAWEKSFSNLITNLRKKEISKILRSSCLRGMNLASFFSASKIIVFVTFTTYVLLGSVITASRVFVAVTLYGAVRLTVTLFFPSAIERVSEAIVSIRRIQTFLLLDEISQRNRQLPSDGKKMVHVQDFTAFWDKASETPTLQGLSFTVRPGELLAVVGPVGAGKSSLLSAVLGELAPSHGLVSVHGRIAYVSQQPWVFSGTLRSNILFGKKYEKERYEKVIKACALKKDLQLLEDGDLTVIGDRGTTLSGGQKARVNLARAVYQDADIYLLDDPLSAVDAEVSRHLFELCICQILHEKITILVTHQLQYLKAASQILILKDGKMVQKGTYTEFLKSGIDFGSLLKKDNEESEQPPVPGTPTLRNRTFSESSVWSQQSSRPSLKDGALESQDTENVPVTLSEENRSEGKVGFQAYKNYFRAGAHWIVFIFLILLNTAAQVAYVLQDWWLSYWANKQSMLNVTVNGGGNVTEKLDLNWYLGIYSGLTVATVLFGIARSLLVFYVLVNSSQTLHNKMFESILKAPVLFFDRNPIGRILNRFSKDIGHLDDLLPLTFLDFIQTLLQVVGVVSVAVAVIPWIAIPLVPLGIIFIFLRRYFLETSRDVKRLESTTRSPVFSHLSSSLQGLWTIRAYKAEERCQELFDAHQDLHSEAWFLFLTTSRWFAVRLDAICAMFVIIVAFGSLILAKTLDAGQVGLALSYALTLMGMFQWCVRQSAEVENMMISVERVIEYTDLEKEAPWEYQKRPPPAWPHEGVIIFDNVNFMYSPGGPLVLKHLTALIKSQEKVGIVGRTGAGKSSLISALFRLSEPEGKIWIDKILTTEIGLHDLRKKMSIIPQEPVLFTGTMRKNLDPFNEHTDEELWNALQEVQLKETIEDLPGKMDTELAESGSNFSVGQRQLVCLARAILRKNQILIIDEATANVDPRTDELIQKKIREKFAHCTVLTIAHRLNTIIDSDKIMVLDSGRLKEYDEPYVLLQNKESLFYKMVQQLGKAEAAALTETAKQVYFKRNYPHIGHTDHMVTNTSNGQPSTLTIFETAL
UniProt O95400: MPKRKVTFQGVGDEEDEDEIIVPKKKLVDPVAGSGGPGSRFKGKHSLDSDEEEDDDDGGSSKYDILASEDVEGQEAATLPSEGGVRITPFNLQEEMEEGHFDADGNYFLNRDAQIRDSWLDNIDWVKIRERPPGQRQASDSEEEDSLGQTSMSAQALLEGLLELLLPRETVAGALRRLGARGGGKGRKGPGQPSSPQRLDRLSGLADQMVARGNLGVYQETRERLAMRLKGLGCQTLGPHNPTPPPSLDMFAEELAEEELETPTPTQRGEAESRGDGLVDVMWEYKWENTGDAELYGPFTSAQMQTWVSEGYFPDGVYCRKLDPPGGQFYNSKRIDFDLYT
UniProt Q7L3B6: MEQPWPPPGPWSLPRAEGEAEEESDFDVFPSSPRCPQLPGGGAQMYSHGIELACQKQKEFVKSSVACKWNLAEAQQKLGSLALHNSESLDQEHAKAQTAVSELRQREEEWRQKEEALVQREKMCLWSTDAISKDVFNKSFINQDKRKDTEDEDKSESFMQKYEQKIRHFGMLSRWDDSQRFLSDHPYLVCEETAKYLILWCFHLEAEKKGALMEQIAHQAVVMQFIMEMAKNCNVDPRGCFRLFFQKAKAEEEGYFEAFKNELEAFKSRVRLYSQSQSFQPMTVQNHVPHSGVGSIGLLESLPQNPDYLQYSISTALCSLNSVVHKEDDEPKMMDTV
UniProt Q6P4R8, whole entry: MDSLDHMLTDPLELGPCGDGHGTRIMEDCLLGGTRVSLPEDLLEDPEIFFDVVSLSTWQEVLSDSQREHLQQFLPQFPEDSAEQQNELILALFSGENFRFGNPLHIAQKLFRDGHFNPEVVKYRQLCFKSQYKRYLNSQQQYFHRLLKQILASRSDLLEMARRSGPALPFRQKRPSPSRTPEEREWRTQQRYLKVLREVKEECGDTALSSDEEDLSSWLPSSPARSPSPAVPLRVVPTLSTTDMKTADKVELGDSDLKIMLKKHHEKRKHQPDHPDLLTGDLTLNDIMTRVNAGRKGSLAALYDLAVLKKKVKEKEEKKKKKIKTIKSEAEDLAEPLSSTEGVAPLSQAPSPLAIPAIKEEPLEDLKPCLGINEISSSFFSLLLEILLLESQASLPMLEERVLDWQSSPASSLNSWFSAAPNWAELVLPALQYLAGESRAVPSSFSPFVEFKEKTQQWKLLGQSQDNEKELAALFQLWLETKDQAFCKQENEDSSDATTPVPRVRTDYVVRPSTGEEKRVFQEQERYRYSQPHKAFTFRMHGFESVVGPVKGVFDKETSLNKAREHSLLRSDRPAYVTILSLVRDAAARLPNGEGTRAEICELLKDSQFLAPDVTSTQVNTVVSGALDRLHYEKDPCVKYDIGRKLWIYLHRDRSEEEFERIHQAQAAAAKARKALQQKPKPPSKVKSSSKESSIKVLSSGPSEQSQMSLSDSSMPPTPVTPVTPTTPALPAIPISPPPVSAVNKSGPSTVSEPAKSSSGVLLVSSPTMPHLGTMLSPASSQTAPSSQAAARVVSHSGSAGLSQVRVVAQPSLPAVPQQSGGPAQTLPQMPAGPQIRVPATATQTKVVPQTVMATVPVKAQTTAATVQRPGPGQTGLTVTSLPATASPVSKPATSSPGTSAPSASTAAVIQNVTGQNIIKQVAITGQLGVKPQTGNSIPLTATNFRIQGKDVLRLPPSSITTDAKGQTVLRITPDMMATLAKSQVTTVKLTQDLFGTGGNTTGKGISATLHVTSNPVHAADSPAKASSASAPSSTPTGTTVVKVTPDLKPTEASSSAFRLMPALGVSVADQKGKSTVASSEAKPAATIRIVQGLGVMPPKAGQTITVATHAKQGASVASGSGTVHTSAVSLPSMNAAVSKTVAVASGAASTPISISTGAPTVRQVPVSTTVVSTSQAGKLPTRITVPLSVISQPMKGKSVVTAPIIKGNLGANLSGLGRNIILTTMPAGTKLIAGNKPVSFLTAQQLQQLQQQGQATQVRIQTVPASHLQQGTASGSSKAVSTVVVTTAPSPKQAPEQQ

Compound: [O-][N+](C(C1=C(C(O)=C2)NC(C(C=C3)=CC=C3Cl)C4C1C=CC4)=C2Cl)=O
Experiment: melting temperature shift (compound 7 minus DMSO); higher = compound stabilises the protein
Conditions: 10 µM
Method: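 Thermal proteome profiling (TMT mass spectrometry) in intact DAOY medulloblastoma cells or DAOY lysates treated with 10 µM compound 7 or DMSO, heated at 10 temperatures from 40.5 to 73.8 °C for 3 min. Melting curves were fitted with the Bioconductor TPP package, and the melting point difference between compound and vehicle is reported per protein (single curve per condition).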

[1] = system: DAOY cell lysate, treatment time: 20 min, 4 °C
[2] = system: intact DAOY cells, treatment time: 90 min, 37 °C

Row | Target | melting temperature shift [1] [°C] | melting temperature shift [2] [°C]
1 | LSM6 (UniProt P62312) | -0.392 | -1.99
2 | EIF2B5 (UniProt Q13144) | -0.513 | -1.13
3 | GPATCH8 (UniProt Q9UKJ3) | 1.45 | 2.42
4 | OAS3 (UniProt Q9Y6K5) | -1.68 | -1.22
5 | ARFGAP2 (UniProt Q8N6H7) | -0.814 | -0.29
6 | UniProt O94832 | -0.453 | 1.68
7 | UniProt Q8IYL2 | 2.31 | –
8 | GLYR1 (UniProt Q49A26) | 0.57 | -0.568
9 | UniProt Q5H9J7 | 2 | –
10 | ERCC5 (UniProt P28715) | 2.28 | 1.98
11 | ALDH7A1 (UniProt P49419) | -0.0241 | 0.0704
12 | RNF121 (UniProt Q9H920) | – | -0.598
13 | UTP14A (UniProt Q9BVJ6) | 0.475 | -0.665
14 | CCNT1 (UniProt O60563) | -0.293 | -0.596
15 | UniProt Q8IXU6 | 0.686 | 4.14
16 | NUDT19 (UniProt A8MXV4) | 0.422 | 1.69
17 | ACTR2 (UniProt P61160) | -0.599 | 0.097
18 | UniProt Q5T8A7 | – | 0.104
19 | HMMR (UniProt O75330) | 0.041 | -0.101
20 | UniProt P49675 | -2.95 | -0.523
21 | SLC7A5 (UniProt Q01650) | 2.27 | 0.125
22 | PLEC (UniProt Q15149) | – | 1.94
23 | ATG7 (UniProt O95352) | -0.312 | -0.908

Row | Target | melting temperature shift [1] [°C] | melting temperature shift [2] [°C]
24 | PYM1 (UniProt Q9BRP8) | 1.27 | –
25 | POMK (UniProt Q9H5K3) | 1.44 | -1.94
26 | APMAP (UniProt Q9HDC9) | 1.35 | 0.573
27 | RAB8B (UniProt Q92930) | 0.737 | 1.19
28 | UniProt P00480 | 1.12 | –
29 | KIAA1429 (UniProt Q69YN4) | -0.553 | -0.454
30 | ZRANB2 (UniProt O95218) | 0.816 | –
31 | UniProt Q8N878 | – | 0.521
32 | UniProt Q96QV6 | – | 2.66
33 | CENPF (UniProt P49454) | -1.27 | 0.408
34 | EIF2S1 (UniProt P05198) | -0.327 | -0.103
35 | OXSR1 (UniProt O95747) | -1.01 | -1.47
36 | VMP1 (UniProt Q96GC9) | -1.15 | 0.628
37 | UniProt Q7Z7N9 | -0.0357 | –
38 | VPS39 (UniProt Q96JC1) | – | 0.75
39 | UniProt P60763 | – | 0.454
40 | UniProt Q13733 | – | -0.207
41 | SNX4 (UniProt O95219) | -0.638 | -1.09
42 | UniProt O60759 | – | -0.854
43 | RAVER1 (UniProt Q8IY67) | -0.494 | -0.0753
44 | ARFGAP1 (UniProt Q8N6T3) | -0.689 | -0.525
45 | UniProt Q6PEY2 | – | -0.765
46 | UBE2V2 (UniProt Q15819) | -1.33 | -0.506

Row | Target | melting temperature shift [1] [°C] | melting temperature shift [2] [°C]
47 | UniProt P61803 | 1.34 | -0.654
48 | UniProt P13796 | 0.532 | 0.682
49 | KIAA0319L (UniProt Q8IZA0) | 3.63 | –
50 | PSMC1 (UniProt P62191) | -0.316 | -1.2
51 | CCT7 (UniProt Q99832) | -0.439 | -0.137
52 | UniProt Q96GP6 | – | -0.43
53 | WTAP (UniProt Q15007) | 1.47 | 1.01
54 | UniProt Q6ZTA4 | 3.23 | –
55 | UniProt Q7Z745 | – | -2.21
56 | THYN1 (UniProt Q9P016) | 0.186 | -0.313
57 | UniProt O15405 | – | -0.972
58 | MRPS7 (UniProt Q9Y2R9) | -0.37 | -1.84
59 | ANKMY2 (UniProt Q8IV38) | -0.583 | 0.0288
60 | UniProt Q9Y5J9 | -4.52 | –
61 | CAMKK1 (UniProt Q8N5S9) | -0.883 | –
62 | ACTN4 (UniProt O43707) | -0.0408 | 0.906
63 | METTL10 (UniProt Q5JPI9) | -0.627 | –
64 | CSDE1 (UniProt O75534) | -0.46 | -0.212
65 | CYB5R3 (UniProt P00387) | 0.851 | -0.403
66 | UniProt O75093 | 0.0223 | -0.374
67 | PLIN3 (UniProt O60664) | -3.34 | –
68 | ATP1B1 (UniProt P05026) | 2.21 | -0.568
69 | ABCC4 (UniProt O15439) | -0.369 | 0.206

Random excerpt: 5 entries already listed
Row | Target | melting temperature shift [1] [°C] | melting temperature shift [2] [°C]
51 | CCT7 (UniProt Q99832) | -0.439 | -0.137
64 | CSDE1 (UniProt O75534) | -0.46 | -0.212
52 | UniProt Q96GP6 | – | -0.43
67 | PLIN3 (UniProt O60664) | -3.34 | –
58 | MRPS7 (UniProt Q9Y2R9) | -0.37 | -1.84

The list continues:

Row | Target | melting temperature shift [1] [°C] | melting temperature shift [2] [°C]
70 | RAB8A (UniProt P61006) | 2.55 | -0.445
71 | SCARB2 (UniProt Q14108) | 4.02 | –
72 | CD2BP2 (UniProt O95400) | -0.168 | 2.01
73 | BTAF1 (UniProt O14981) | -0.412 | -1.04
74 | TSC1 (UniProt Q92574) | -2.28 | –
75 | UNG (UniProt P13051) | -1.53 | -0.777
76 | CLEC16A (UniProt Q2KHT3) | – | 1.57
77 | CDC37L1 (UniProt Q7L3B6) | -1.58 | 0.0339
78 | SYNJ2 (UniProt O15056) | -0.388 | -0.216
79 | PNPT1 (UniProt Q8TCS8) | 0.788 | -0.861
80 | HSPB1 (UniProt P04792) | -0.465 | 0.855
81 | RPS14 (UniProt P62263) | 0.0486 | -0.115
82 | SLC9A1 (UniProt P19634) | -0.599 | –
83 | ANO6 (UniProt Q4KMQ2) | 0.858 | -2.49
84 | CNDP2 (UniProt Q96KP4) | -0.516 | 0.827
85 | UniProt Q6P4R8 | 1.17 | –
86 | HDDC2 (UniProt Q7Z4H3) | -0.91 | -2.44
87 | TMEM189 (UniProt A5PLL7) | 3.75 | –
88 | ANP32A (UniProt P39687) | -2.35 | 0.705
89 | TRIO (UniProt O75962) | -0.374 | -0.583
90 | HNRNPM (UniProt P52272) | 0.531 | -0.326
91 | NCKAP1 (UniProt Q9Y2A7) | -0.603 | -0.0967
92 | RDH13 (UniProt Q8NBN7) | 0.745 | –
